No constants are given. Whether binding was seen depends on the method and setting. Some results given as binding are weak or reduced against the parent protein; the word gives no strength.

Chains of the proteins cited; added tags and fusions are not shown. Lines headed by an entry give the natural chain unless they say otherwise; changes in a name come on top.
UniProt P08581: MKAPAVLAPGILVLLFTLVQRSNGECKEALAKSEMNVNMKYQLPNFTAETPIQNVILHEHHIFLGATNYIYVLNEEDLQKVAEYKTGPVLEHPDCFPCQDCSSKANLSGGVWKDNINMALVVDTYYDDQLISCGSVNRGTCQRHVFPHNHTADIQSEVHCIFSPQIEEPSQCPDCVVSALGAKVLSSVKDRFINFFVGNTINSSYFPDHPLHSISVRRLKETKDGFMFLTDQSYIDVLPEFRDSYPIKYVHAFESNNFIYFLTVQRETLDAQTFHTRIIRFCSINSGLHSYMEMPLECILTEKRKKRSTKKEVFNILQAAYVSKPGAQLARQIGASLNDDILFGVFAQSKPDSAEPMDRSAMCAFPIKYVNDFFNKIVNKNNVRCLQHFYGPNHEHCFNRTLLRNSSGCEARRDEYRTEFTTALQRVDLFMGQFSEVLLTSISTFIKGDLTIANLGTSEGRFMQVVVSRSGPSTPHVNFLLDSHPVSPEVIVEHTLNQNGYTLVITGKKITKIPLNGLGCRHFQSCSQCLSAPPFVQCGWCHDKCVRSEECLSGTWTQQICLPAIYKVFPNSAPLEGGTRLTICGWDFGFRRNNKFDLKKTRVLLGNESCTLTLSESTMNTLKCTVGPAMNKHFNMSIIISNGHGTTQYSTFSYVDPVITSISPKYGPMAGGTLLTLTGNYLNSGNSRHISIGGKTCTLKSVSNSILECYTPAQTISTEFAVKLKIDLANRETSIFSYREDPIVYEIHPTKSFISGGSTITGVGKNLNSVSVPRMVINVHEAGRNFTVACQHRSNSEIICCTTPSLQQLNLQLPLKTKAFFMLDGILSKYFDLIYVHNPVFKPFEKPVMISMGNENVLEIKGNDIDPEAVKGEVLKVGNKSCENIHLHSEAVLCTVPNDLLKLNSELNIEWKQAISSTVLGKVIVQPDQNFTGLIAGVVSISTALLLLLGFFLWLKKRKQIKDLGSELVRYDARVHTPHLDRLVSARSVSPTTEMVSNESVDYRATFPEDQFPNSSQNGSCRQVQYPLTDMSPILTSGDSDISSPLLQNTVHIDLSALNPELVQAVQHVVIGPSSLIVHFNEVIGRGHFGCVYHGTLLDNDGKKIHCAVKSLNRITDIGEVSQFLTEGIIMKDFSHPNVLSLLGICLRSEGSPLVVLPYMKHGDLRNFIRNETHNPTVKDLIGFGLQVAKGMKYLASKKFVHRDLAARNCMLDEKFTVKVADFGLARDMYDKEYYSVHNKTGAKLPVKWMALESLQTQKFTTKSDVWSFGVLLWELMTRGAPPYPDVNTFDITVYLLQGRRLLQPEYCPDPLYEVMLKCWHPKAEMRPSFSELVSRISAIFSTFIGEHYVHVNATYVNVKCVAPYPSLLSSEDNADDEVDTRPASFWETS
UniProt P16056: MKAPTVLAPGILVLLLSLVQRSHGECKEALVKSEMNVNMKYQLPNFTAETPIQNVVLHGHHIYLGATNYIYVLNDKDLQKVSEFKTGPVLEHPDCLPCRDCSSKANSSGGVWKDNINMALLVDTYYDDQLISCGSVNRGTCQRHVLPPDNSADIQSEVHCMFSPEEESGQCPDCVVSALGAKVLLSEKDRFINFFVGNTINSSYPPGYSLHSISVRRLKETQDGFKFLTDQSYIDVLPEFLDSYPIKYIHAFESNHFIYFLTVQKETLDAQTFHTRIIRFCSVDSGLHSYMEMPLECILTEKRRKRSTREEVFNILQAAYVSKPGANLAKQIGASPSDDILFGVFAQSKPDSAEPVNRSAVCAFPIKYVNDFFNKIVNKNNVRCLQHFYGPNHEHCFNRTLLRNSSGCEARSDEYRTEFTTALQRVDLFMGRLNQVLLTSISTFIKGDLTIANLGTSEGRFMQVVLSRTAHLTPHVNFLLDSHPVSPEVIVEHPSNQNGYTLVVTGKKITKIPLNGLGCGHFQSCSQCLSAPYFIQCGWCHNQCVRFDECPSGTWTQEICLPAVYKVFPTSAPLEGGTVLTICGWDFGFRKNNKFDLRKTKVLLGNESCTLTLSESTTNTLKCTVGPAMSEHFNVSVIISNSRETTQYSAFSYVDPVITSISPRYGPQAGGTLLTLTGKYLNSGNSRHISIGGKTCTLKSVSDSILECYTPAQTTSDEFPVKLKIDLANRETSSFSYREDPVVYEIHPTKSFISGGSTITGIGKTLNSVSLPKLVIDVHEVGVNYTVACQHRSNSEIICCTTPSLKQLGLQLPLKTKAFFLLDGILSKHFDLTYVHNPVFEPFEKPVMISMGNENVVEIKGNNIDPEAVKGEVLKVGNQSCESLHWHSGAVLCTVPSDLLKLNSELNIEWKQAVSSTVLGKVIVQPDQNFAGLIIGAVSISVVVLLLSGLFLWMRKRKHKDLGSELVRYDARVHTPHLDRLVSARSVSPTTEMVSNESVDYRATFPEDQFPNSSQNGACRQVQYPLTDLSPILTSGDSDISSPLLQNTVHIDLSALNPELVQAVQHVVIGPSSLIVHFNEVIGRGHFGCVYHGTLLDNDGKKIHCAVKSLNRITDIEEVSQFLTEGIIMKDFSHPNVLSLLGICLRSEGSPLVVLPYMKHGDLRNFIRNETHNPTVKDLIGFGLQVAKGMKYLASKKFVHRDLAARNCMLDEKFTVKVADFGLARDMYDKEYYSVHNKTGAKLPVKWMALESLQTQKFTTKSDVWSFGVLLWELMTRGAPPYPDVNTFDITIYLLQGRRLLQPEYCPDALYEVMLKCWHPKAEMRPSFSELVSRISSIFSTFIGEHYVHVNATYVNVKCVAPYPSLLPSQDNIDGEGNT

The text below walks through data of US20190315872A1.

Assay [1] concerns the target Human c-Met (human) (UniProt P08581). Briefly: phage display biopanning on human c-Met (summary of PCT/KR2015/007899).
Assay [2] shares this target. The assay is described as follows: BIAcore (SPR).
Another assay concerns the target Mouse c-Met (mouse) (UniProt P16056). Briefly: BIAcore (SPR). A general note: Surface plasmon resonance follows binding to a sensor surface in real time, without labels.

B1: 1E4 scFv (scFv)
scFv: QVQLVQSGAEVKKPGESLRISCQGSGYSFPTHWITWVRQMPGKGLEWMGTIDPTDSYNFYGPSFQGHVTISADSSSSTAYLQWSSLKASDTAMYYCARDGNYYDSRGYYYDTFDMWGQGTLVTVSSGLGGLGGGGSGGGGSGGSSGVGSDIQMTQSPSFLSASVGDRVTITCRASQGISTYLAWYQQKPGTAPKLLIYSASTLESGVPSRFSGSGSGTDFTLTISSLQPEDSATYYCQQADSFPLTFGGGTKVEIKRGGASLVE
With B1, in the assay with Human c-Met (human) [1], the binding result was “binds”.

B2: 1E4 IgG1 antibody (antibody, V domains shown)
VH: QVQLVQSGAEVKKPGESLRISCQGSGYSFPTHWITWVRQMPGKGLEWMGTIDPTDSYNFYGPSFQGHVTISADSSSSTAYLQWSSLKASDTAMYYCARDGNYYDSRGYYYDTFDMWGQGTLVTVSS
VL: DIQMTQSPSFLSASVGDRVTITCRASQGISTYLAWYQQKPGTAPKLLIYSASTLESGVPSRFSGSGSGTDFTLTISSLQPEDSATYYCQQADSFPLTFGGGTKVEIKR
With B2, the binding entry with Human c-Met (human) [2] and with Mouse c-Met (mouse) was “binds” each time.
